Laboratory results: PubChem BioAssay AID2685 (National Center for Advancing Translational Sciences (NCATS), 2010)
The other results are listed elsewhere or left out. Shown are side measurements of this screen, not its main read-out; they come without a call. Compounds called inactive in the main read-out are mostly missing here. Words in brackets tell the shape of the fitted curve; partial curves, single points and poor fits give uncertain potencies.

Test: qHTS Assay for Lipid Storage Modulators in Drosophila S3 Cells;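 on cell number change: cells counted by Cell Tracker Red CMTPX staining in the red channel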
Conditions: BODIPY lipid droplet fluorescence, 18-24 h; for cell number change: measured here: cell count max response, cells fed with added oleic acid
Method in brief: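 Drosophila S3 cells got compounds at several concentrations plus oleic acid (400 uM solution). Laser-scanning cytometry with 488 nm excitation read lipid droplets at 500-530 nm and cells at 575-640 nm. Percent activity was relative to 20 uM Triacsin C.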

[1] = measured here: cell number channel AC50, cells fed with added oleic acid
[2] = measured here: lipid fluorescence (Fed channel) AC50, cells fed with added oleic acid

O=C(Nc1ccc(N2CCCC2)c(Cl)c1)c1cccs1
AC50 [1]: 2590 nM [falling, partial curve, poor fit]
AC50 [2]: 1640 nM [falling, partial curve, poor fit]

Cc1ccc(OCCNC(=O)C2CC(=O)N(Cc3ccccc3)C2)cc1 (configuration not stated)
cell number change: 3.61%
AC50 [2]: 2310 nM [falling, partial curve]

CNCCOc1ccccc1C(C)(C)C
cell number change: 11.1%

COCCN1Cc2cccc(C(=O)Nc3cccc(-c4nc5ccccc5[nH]4)c3)c2C1=O
cell number change: -11.8%

Cc1ccccc1Nc1nc(N)nc(CSc2nc3ccccc3c(=O)n2C)n1
cell number change: -1.39%
AC50 [2]: 8200 nM [rising, partial curve]

CC1(C)CC2CC(C)(CN2C(=O)c2ccc([N+](=O)[O-])cc2)C1 (configuration not stated)
cell number change: -10.4%
AC50 [2]: 29100 nM [falling, single point]

NC(=S)c1ccc(C(N)=S)o1
cell number change: -8.82%
AC50 [1]: 731 nM [falling, full curve]
AC50 [2]: 3260 nM [falling, full curve]

O=C(OCc1nnc(-c2ccc(Br)cc2)o1)c1ccco1
cell number change: -4.42%
AC50 [2]: 29100 nM [rising, single point]

CC1(C)CCC[C@@]2(C)CC=C(C(=O)O)[C@@H]3C[C@]312
cell number change: -30%
AC50 [2]: 517 nM [falling, full curve, poor fit]

COc1ccccc1C1/C(=C(/O)c2ccccc2)C(=O)C(=O)N1CCO (configuration not stated)
cell number change: -3.27%

CCCCN(C(=O)C1CCC1)c1c(N)n(Cc2ccccc2)c(=O)[nH]c1=O
cell number change: 9.19%
AC50 [2]: 206 nM [rising, full curve, poor fit]

COc1ccc(C(=O)N2CCCC(N3CCN(c4ccccc4OC)CC3)C2)c(OC)n1 (configuration not stated)
cell number change: -26.3%
AC50 [2]: 29100 nM [falling, single point]

CCOC(=O)/C=C/S(=O)(=O)c1ccc(NC(C)=O)cc1
cell number change: -84.9%
AC50 [1]: 23100 nM [falling, single point]
AC50 [2]: 23100 nM [falling, partial curve]

CCN1CCN(S(=O)(=O)c2ccc(S(=O)(=O)NC3CC3)cc2)CC1
cell number change: -6.41%

COCCN1Cc2cccc(C(=O)NCc3ccccc3OC)c2C1=O
cell number change: 5.73%

O=C(Nc1cccc(S(=O)(=O)NC2=NCCC2)c1)c1cnc(Cl)c(Cl)c1
cell number change: -23.8%
AC50 [2]: 92 nM [falling, full curve, poor fit]

COC(=O)c1cc(OC)c(OC)cc1NC(=O)c1cccc(C)c1
cell number change: 1.29%
AC50 [1]: 651 nM [falling, single point]
AC50 [2]: 580 nM [falling, partial curve, poor fit]
